From patent publication US20250082754A1 (NANJING LEGEND BIOTECH, published 2025)
These are yes or no findings as the source states them, for the method shown. Some results given as binding are weak or reduced against the parent protein; the word gives no strength.

By UniProt entry, the sequences of proteins in these tests, tags left out. Residues count along the entry.
UniProt P20138, residues 145-228: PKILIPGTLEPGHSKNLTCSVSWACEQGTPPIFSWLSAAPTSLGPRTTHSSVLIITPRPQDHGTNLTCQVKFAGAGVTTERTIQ

Target: T1, Human CD33 C2 domain (human, UniProt P20138)
T1 construct: C2 domain only; also called C2-set Ig-like domain of human CD33
Test: +/- column 'Human CD33 C2 domain' of the drawn table; legend: cell binding properties; assay not named on the sheet

B1: AS199772 (scFv)
scFv (VL-linker-VH): SYELTQSPSVSVALRQAAKITCRGDNIETKYAYWYQQKPGQSPLLVIYKDDNRPSGIPERFSGSNSGNMATLTISGAQAEDEADYYCQVWDSSANWVFGGGTHLTVLGGGGSGGGGSGGGGSQVQLQESGGGLVQPGGSLRLSCAASGFTFSSYWMYWVRQAPGKGLEWVSAMNTGGGSTYYGDSVKGRFTVSRDNAKNTLALQMNSLKPEDTALYYCARSWGGMYSGGYYEYSGMDYWGKGTLVTVSS
notes: Format as for f1; also called anti-CD33 IgG1 AS199772; AS199772 scFv
With B1 the binding was “binds”.

B2: AS200728C (scFv)
scFv (VL-linker-VH): QAVVTQLSSMSGSPGQTVTITCTGSSSNIGGGYYLSWYQQLPGTAPKLLIYNVNNRASGVPNRFSGSKTGSLASLTITGLQAEDEADYYCGSYDESLSYVFGGGTHLTVLGGGGSGGGGSGGGGSQVQLVESGGGLVQPGGSLRVSCAASGFTFKNYYMGWVRQAPGKGLEWISGINSGGEVTTYADSVKDRFTISRDNAKNTLYLQMNSLKPDDTALYYCAGGEGSSWYPDYYYGNGYWGEGTLITVSS
notes: Format as for f1; also called anti-CD33 IgG1 AS200728C; AS200728C scFv
For B2, the binding was “binds”.

B3: AS188893 (scFv)
scFv (VL-linker-VH): SYELTQPSAVSVSLGQTARITCQGGNLGTSYVHWYQQKPGQAPVLVIYGDDSRPSGIPERFSGSSSGGTATLTISGAQAEDEADYYCQSYDSSSSVFGGGTHLTVLGGGGSGGGGSGGGGSQVQLQESGGGLVQPGGSLRLSCAASGFTFSNNWMYWVRQAPGKGLEWVSSIATGDGSTNSADSVKGRFTISRDNTKNMLYLQMNSLKSEDTALYYCAKGVNIDHDVGAGDYWGQGTQVTVSS
notes: Format as for f1; also called anti-CD33 IgG1 AS188893; AS188893 scFv
For B3, the binding was “binds”.

B4: AS199911 (scFv)
scFv (VL-linker-VH): SYELTQPSALSVTLGQSAKITCQGDNFETTYVHWYQQKPGQAPVLVIYNDDSRPSGIPERFSGSNSGDRATLTISGAQAEDEGDYYCQSADTSGNAYVFGGGTHLTVLGGGGSGGGGSGGGGSAVQLVESGGGLVQPGGSLRLSCAASGFTFSRSDMSWVRQAPGKGLEWVSYINSGGGTNRYADSVKARFTIFRDNAKNTLYLQMNTLKPEDTAVYYCAKSGFDSDWIFGYLERWGQGTLVTVSS
notes: Format as for f1; also called anti-CD33 IgG1 AS199911; AS199911 scFv
With B4 the binding was “binds”.

B5: AS199757 (scFv)
scFv (VL-linker-VH): NFMLTQPPSVSGSPGQKFTISCTGSSNNIGDNYVNWYQHLPGTAPKLLIYSNNNRASGVPDRFSGSKSGSSASLTITGLQAEDEADYYCSSWDDSLSGFVFGGGTHLTVLGGGGSGGGGSGGGGSAVQLVESGGGLVQPGGSLRLTCAASGFTFDNYGMSWVRQAPGKGLEWVSAIMWNGGTTYYAEPMKGRFTISRDNAKNTVYLQMNSLKSEDTAVYYCARHGSSWYAMDYWGQGTQVTVSS
notes: Format as for f1; also called anti-CD33 IgG1 AS199757; AS199757 scFv
For B5, the binding was “binds”.
